In this assay the test system is P388 leukemia ip, CD2F1 mice, survival T/C. The assay is described as follows: NCI In Vivo Anticancer Drug Screen. Data for tumor model P388 Leukemia (intraperitoneal) in CD2F1 (CDF1) mice. The note with it: T/C endpoint: median survival time, higher T/C = longer survival.
The mark [1] stands for this setting: dose: 50.0 mg/kg/injection, schedule: Q01DX005 (ip), vehicle: saline.
[2] abbreviates: dose: 100.0 mg/kg/injection, schedule: Q01DX005 (ip), vehicle: saline.
Where [3] appears, read: dose: 200.0 mg/kg/injection, schedule: Q01DX005 (ip), vehicle: saline.
Where [4] appears, read: dose: 200.0 mg/kg/injection, schedule: Q01DX005 (ip), vehicle: saline with Tween-80.
Setting [5] is: dose: 100.0 mg/kg/injection, schedule: Q01DX009 (ip), vehicle: Klucel (hydroxypropylcellulose) (HPC).
The mark [6] stands for this setting: dose: 200.0 mg/kg/injection, schedule: Q01DX009 (ip), vehicle: Klucel (hydroxypropylcellulose) (HPC).
[7] abbreviates: dose: 400.0 mg/kg/injection, schedule: Q01DX009 (ip), vehicle: Klucel (hydroxypropylcellulose) (HPC).

SMILES strings stand for the structures. The list does not hold the whole screen: it gathers tests that were run many times, whatever their T/C, doses with no T/C, and many T/C values between a quarter and a half above the control. Further doses and runs are listed elsewhere. T/C: endpoint of the treated group in % of that of the vehicle group. Some doses have a count of surviving animals in place of a T/C: the source files T/C as zero there, which appears to mark a toxic dose or a test without result, not a measured value. Some doses without a T/C left all or most animals alive at the check, yet need not have been tolerated: the source hardly ever lists a survival T/C far under the control, and the zero likely stands for such cases as well. Survivors were counted at the toxicity check, usually on the fifth day, unless a day is given; later deaths do not show. Schedules are NCI's codes, taken here to give the interval after Q, in days (D) or hours (H), and the number of doses after X. Some doses were run more than once; the results are listed from low to high. Where survival is the endpoint, this PubChem deposit counts one and a half times the control or more as active, and values a quarter to a half above the control carry no call in these data; other NCI protocols may use other cut-offs. Some T/C values are followed by the survivors on the day toxicity was checked, most often the fifth; without a count, all were alive then. Additions like (4×) say how often a value occurs here.

Regarding `[CH3][Sn]([CH3])([Cl])[c]1cc[c]([Sn]([CH3])([CH3])[Cl])cc1`, the T/C is 131 % of control (dose: 0.19 mg/kg/injection, schedule: Q01DX005 (ip), vehicle: saline); 126 % of control (dose: 0.19 mg/kg/injection, schedule: Q01DX005 (ip), vehicle: suspension in saline); 134 and 140 % of control (dose: 0.39 mg/kg/injection, schedule: Q01DX005 (ip), vehicle: saline); 127 % of control (dose: 0.39 mg/kg/injection, schedule: Q01DX005 (ip), vehicle: suspension in saline); 139 % of control (dose: 0.78 mg/kg/injection, schedule: Q01DX005 (ip), vehicle: suspension in saline, evaluated on day 20); 131 % of control (dose: 0.78 mg/kg/injection, schedule: Q01DX005 (ip), vehicle: suspension in saline, evaluated on day 30). Besides, the T/C runs as follows: (dose: 0.79 mg/kg/injection, schedule: Q01DX005 (ip), vehicle: saline) 141 % of control; (dose: 1.56 mg/kg/injection, schedule: Q01DX005 (ip), vehicle: saline) 143 and 144 % of control; (dose: 1.56 mg/kg/injection, schedule: Q01DX005 (ip), vehicle: suspension in saline, evaluated on day 20) 139 % of control; (dose: 1.56 mg/kg/injection, schedule: Q01DX005 (ip), vehicle: suspension in saline, evaluated on day 30) 138 % of control. Moreover, the survivor count runs as follows: (dose: 3.12 mg/kg/injection, schedule: Q01DX005 (ip), vehicle: saline) 1 of 6; (dose: 3.12 mg/kg/injection, schedule: Q01DX005 (ip), vehicle: suspension in saline) 0 of 6; (dose: 6.25 mg/kg/injection, schedule: Q01DX005 (ip), vehicle: saline) 0 of 6; (dose: 12.5 mg/kg/injection, schedule: Q01DX005 (ip), vehicle: saline) 0 of 6; under setting [1], 0 of 6; under setting [2], 0 of 6. Also, the survivor count under setting [3] is reported as 0 of 6.
Take `N#C/C(=C1/OC(=N)C(c2c(Cl)cccc2Cl)C1=O)c1c(Cl)cccc1Cl` (centres undefined): the survivor count under setting [4] is listed as 3 of 6.
With `CCC(=O)[O][Sn]([CH3])([CH3])[O][Sn]([CH3])([CH3])[O]C(=O)CC`, the T/C (dose: 25.0 mg/kg/injection, schedule: Q01DX005 (ip), vehicle: saline) is 131 % of control. The survivor count runs as follows: under setting [1], 3 of 6 and 4 of 6; under setting [2], 1 of 6; under setting [3], 0 of 6.
Take `CCOP(O)(=S)OCC`: the survivor count was 6 of 6 (dose: 50.0 mg/kg/injection, schedule: Q01DX001 (ip), vehicle: saline) and 6 of 6 (dose: 100.0 mg/kg/injection, schedule: Q01DX001 (ip), vehicle: saline).
Regarding `Cc1cccc(C)c1N=O`, the T/C under setting [5] was 130 and 132 % of control. Further, the survivor count under setting [6] is 6 of 6.
Regarding `NC(=O)c1csc(C2OC(CO)C(O)C2O)n1` (centres undefined), the T/C by setting is: (dose: 37.5 mg/kg/injection, schedule: Q01DX005 (ip), vehicle: water) 129 % of control; under setting [1], 143 and 145 % of control [5 of 6 alive]; (dose: 50.0 mg/kg/injection, schedule: Q01DX005 (ip), vehicle: water) 137 and 140 % of control; (dose: 75.0 mg/kg/injection, schedule: Q01DX005 (ip), vehicle: water) 142 % of control; (dose: 100.0 mg/kg/injection, schedule: Q01DX005 (ip), vehicle: water) 143 % of control; (dose: 150.0 mg/kg/injection, schedule: Q01DX005 (ip), vehicle: water) 149 % of control. Besides, the T/C (dose: 200.0 mg/kg/injection, schedule: Q01DX005 (ip), vehicle: water) is 146 % of control; the T/C (dose: 220.0 mg/kg/injection, schedule: Q01DX009 (ip), vehicle: water, evaluated on day 45) is 180, 189, 194, 203, 209 % of control; the T/C (dose: 220.0 mg/kg/injection, schedule: Q01DX009 (ip), vehicle: water, evaluated on day 60) was 192 and 200 % of control; the T/C (dose: 330.0 mg/kg/injection, schedule: Q01DX009 (ip), vehicle: water, evaluated on day 45) is 190, 200 (2×), 207, 209, 219 % of control; the T/C (dose: 330.0 mg/kg/injection, schedule: Q01DX009 (ip), vehicle: water, evaluated on day 60) was 198 [9 of 10 alive], 199, 203, 211 % of control (2×); the T/C (dose: 500.0 mg/kg/injection, schedule: Q01DX009 (ip), vehicle: water, evaluated on day 30) is 198 and 210 % of control. The T/C is 198, 210, 219, 221 [8 of 9 alive], 227 [9 of 10 alive], 231 % of control (dose: 500.0 mg/kg/injection, schedule: Q01DX009 (ip), vehicle: water, evaluated on day 45) and 202, 214 (2×), 227, 229 % of control (dose: 500.0 mg/kg/injection, schedule: Q01DX009 (ip), vehicle: water, evaluated on day 60).
As to `CS/C(=C/c1ccc2ccccc2[n+]1C)N1CCCCC1`, the survivor count (dose: 3.12 mg/kg/injection, schedule: Q01DX005 (ip), vehicle: saline with Tween-80) is recorded as 0 of 5; the survivor count (dose: 6.25 mg/kg/injection, schedule: Q01DX005 (ip), vehicle: saline with Tween-80) was 0 of 6; the survivor count (dose: 12.5 mg/kg/injection, schedule: Q01DX005 (ip), vehicle: saline with Tween-80) is reported as 0 of 6; the survivor count (dose: 25.0 mg/kg/injection, schedule: Q01DX005 (ip), vehicle: saline with Tween-80) is on record as 0 of 6; the survivor count (dose: 50.0 mg/kg/injection, schedule: Q01DX005 (ip), vehicle: saline with Tween-80) is given as 0 of 6; the survivor count (dose: 100.0 mg/kg/injection, schedule: Q01DX005 (ip), vehicle: saline with Tween-80) is given as 0 of 6. Besides, the survivor count under setting [4] is on record as 0 of 6.
For the compound `CCOC(=O)c1ccc(NCc2ccc(CNc3ccc(C(=O)OCC)cc3)cc2)cc1`, the survivor count is given as 6 of 6 (dose: 25.0 mg/kg/injection, schedule: Q01DX009 (ip), vehicle: saline with Tween-80); 6 of 6 (dose: 50.0 mg/kg/injection, schedule: Q01DX009 (ip), vehicle: saline with Tween-80); 6 of 6 (dose: 100.0 mg/kg/injection, schedule: Q01DX009 (ip), vehicle: saline with Tween-80); 6 of 6 (dose: 200.0 mg/kg/injection, schedule: Q01DX009 (ip), vehicle: saline with Tween-80).
As for `O=C1NC(c2cccc(OCc3ccccc3)c2)Nc2ccccc21` (centres undefined), the survivor count under setting [7] is listed as 6 of 6.
For `Cn1cnc2c1c(=O)n(C(C(N)=O)C(N)=O)c(=O)n2C`, the survivor count (dose: 100.0 mg/kg/injection, schedule: Q01DX001 (ip), vehicle: saline with Tween-80) was 6 of 6.
For `C=C1C(=O)OC2C1CCC(=C)C1CC(O)C(=C)C12` (centres undefined), the T/C runs as follows: (dose: 37.5 mg/kg/injection, schedule: Q01DX009 (ip), vehicle: suspension in saline) 133 % of control; (dose: 75.0 mg/kg/injection, schedule: Q01DX009 (ip), vehicle: suspension in saline, evaluated on day 20) 140 % of control [5 of 6 alive]; (dose: 75.0 mg/kg/injection, schedule: Q01DX009 (ip), vehicle: suspension in saline, evaluated on day 23) 133 % of control. Moreover, the survivor count (dose: 150.0 mg/kg/injection, schedule: Q01DX009 (ip), vehicle: suspension in saline) was 3 of 6 and 4 of 6.
Consider `CN(C)CCCNc1ccc(NCCCN(C)C)c2c1C(=O)c1ccccc1C2=O`, for which the survivor count reads like this: (dose: 50.0 mg/kg/injection, schedule: Q01DX009 (ip), vehicle: water) 6 of 6; (dose: 100.0 mg/kg/injection, schedule: Q01DX009 (ip), vehicle: water) 1 of 6; (dose: 200.0 mg/kg/injection, schedule: Q01DX009 (ip), vehicle: water) 0 of 6.
With `CCSCCC(NC(=O)CN)C(=O)O` (centres undefined), the survivor count (dose: 200.0 mg/kg/injection, schedule: Q01DX009 (ip), vehicle: saline) is listed as 0 of 6.
Turning to `O=c1oc(-c2ccco2)ns1`, the survivor count by setting is: under setting [5], 2 of 6; under setting [6], 1 of 6; under setting [7], 0 of 6.

The values are drawn from PubChem BioAssay AID330 (DTP/NCI, 2004).
